Results are given in words; binding and its absence hold for the method and conditions named. Binding seen in cells or lysates may run through a third protein. Some results given as binding are weak or reduced against the parent protein; the word gives no strength.
Assays:
[1] = target: His-tagged Axin2, doxycycline-inducible, stably transfected in MCF-7 cells (UniProt Q9Y2T1); experiment: pull-down; whole cell Triton X-100 lysates of MCF-7 cells with inducible His-tagged Axin2 incubated with Ni-NTA beads with different doses of niclosamide; immunoblot for GSK3
[2] = target: His-tagged Axin2 (full-length), transfected in 293 cells (UniProt Q9Y2T1); experiment: pull-down; 293 cells transfected with His-tagged Axin2 and treated with increasing doses of niclosamide for 8 h; Ni-NTA bead precipitation of the lysate (called immunoprecipitation), immunoblot for GSK3

Amino acid sequences for entries named in this document (tags omitted).
UniProt Q9Y2T1: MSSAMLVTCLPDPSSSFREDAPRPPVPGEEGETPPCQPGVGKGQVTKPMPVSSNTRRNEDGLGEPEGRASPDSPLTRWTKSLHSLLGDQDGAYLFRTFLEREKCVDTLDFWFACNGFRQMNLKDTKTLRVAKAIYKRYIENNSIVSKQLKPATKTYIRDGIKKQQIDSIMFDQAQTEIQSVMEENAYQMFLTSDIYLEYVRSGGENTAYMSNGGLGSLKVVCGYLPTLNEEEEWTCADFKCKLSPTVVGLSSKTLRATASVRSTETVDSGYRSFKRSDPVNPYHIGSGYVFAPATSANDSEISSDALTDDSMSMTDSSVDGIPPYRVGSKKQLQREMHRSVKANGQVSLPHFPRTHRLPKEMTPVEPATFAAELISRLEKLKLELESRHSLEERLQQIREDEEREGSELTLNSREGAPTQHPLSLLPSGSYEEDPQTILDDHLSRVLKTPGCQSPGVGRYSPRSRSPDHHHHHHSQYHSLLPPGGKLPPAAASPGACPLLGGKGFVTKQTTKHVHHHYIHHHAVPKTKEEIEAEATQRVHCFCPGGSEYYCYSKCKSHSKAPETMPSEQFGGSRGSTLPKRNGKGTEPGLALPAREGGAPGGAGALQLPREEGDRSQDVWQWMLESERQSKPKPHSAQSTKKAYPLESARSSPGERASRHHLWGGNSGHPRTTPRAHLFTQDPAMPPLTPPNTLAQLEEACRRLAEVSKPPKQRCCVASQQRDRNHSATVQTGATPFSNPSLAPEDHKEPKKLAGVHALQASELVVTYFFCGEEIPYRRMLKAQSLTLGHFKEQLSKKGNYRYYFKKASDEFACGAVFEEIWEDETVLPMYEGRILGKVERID
UniProt P49841: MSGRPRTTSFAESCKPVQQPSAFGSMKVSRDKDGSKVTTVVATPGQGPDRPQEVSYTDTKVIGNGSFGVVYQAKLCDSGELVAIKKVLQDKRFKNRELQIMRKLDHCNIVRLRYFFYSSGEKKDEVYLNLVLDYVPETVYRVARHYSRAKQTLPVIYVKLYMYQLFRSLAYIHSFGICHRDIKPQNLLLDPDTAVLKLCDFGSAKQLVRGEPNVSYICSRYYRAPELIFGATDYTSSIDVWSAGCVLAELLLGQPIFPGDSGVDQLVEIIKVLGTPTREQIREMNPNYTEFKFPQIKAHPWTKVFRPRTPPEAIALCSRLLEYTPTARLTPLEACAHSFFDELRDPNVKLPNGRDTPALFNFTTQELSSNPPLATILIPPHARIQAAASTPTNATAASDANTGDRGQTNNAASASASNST

## GSK3 (endogenous, detected by immunoblot) (from UniProt P49841 1-420)
[1]
  binding: binds
[2]
  binding: binds

Source: publication PMC5458252, “Niclosamide is a potential therapeutic for familial adenomatosis polyposis by disrupting Axin-GSK3 interaction” (Oncotarget, 2017)
